The text below walks through data of PMC4886219, “Bioengineered kidney tubules efficiently excrete uremic toxins” (Scientific Reports, 2016).

Data set [1] deals with bioengineered renal tubules (ciPTEC). In words: Endocytosis-mediated albumin (BSA-FITC) uptake in bioengineered renal tubules. Particulars: 25 μg/ml, 30 min. Type of data set: cell-based, human.
Data set [2] concerns ciPTEC-OAT1 on double-coated HFM. In words: FITC-inulin leakage, transepithelial barrier function of ciPTEC-OAT1 on HFM. Type of data set: cell-based, human. The following applies: within 1 min of perfusion, 0.1 mg/ml.

Regarding BSA-FITC: FITC-bovine serum albumin, the “intracellular BSA-FITC uptake (in words)” value in data set [1] (apical exposure, 4 °C) is listed as “highly reduced”; in data set [1] (apical exposure, 37 °C), “active uptake of BSA-FITC was detectable”; in data set [1] (basolateral perfusion, 37 °C), “could not be detected”.
FITC-inulin: the results for the FITC-inulin leakage in data set [2] (HFM fully covered with ciPTEC-OAT1) and in data set [2] (unseeded coated HFM (no cells)) were 10 ± 3% and 89 ± 4%, respectively.
